This is a selection; strong and weak results do not stand in their true shares. At the low end of the ranking the order means little.
The sequences below were run against SPI1 (UniProt P17947) (assay: DAPPL (digital affinity profiling via proximity ligation, sequencing)). Details: 10 mM Tris-HCl pH 7.5, 50 mM NaCl, 1 mM DTT, 4% glycerol, room temperature, 30 min; GST-TFs on glutathione beads, 16-mer random dsDNA library, 0.1% …; high values mean tight binding; double strand, one strand shown; scale: fold enrichment (6-mer frequency, TF over GST control).

Row | Sequence | binding signal
1 | AGGAGA | 0.21
2 | GCGGCG | 0.846
3 | GCCAAG | 0.828
4 | ACCAGG | 0.694
5 | CGCAAG | 0.789
6 | AGTCCA | 0.821
7 | AGAGTT | 0.796
8 | GGGAGT | 0.208
9 | GGGGCA | 0.649
10 | ACGCAG | 0.801
11 | CCAGTA | 0.666
12 | ACCGCG | 0.872
13 | GTCGGG | 0.24
14 | GTCTGA | 0.872
15 | CGCATC | 0.909
16 | TAGACG | 0.758
17 | ACTGAG | 0.792
18 | CAGCGG | 0.411
19 | GAGGGC | 0.659
20 | GGGGTG | 0.655

Row | Sequence | binding signal
21 | CAGTCT | 0.743
22 | GCCACG | 0.894
23 | TAGGAG | 0.387
24 | GCGAGT | 0.547
25 | AGACAA | 0.807
26 | AGGCAT | 0.792
27 | GAACGG | 0.572
28 | GGGGTC | 0.649
29 | CGGTCG | 0.402
30 | CGTGCC | 0.875
31 | GTGACA | 0.803
32 | GCCAAA | 0.939
33 | GAGGGT | 0.547
34 | ACAGCG | 0.754
35 | CCGCGA | 0.686
36 | GGCGTC | 0.793
37 | GGCGCA | 0.601
38 | GGACAC | 0.754
39 | GTAGGC | 0.737

Single values from the list:
binding signal with AGACAA reads 0.807
binding signal with CAGTCT reads 0.743
